Assay results: patent publication US7271130B2 (priority 2002, dated 2007)
Some results were stated once for a whole list of compounds, not compound by compound.

Tests used:
[1] = test system: Phytophthora infestans; format: in vivo; settings: 200 ppm; tomato leaf disks; assessed four days after inoculation
[2] = test system: Plasmopara viticola; format: in vivo; settings: 200 ppm
[3] = test system: Pythium ultimum; format: cell-based; settings: 20 ppm

## CC#CC(C)(C)NC(=O)C(COC)Oc1cc(C)c(C)c(C)c1 (centres unmarked) [3(1), 2-(3,4,5-trimethylphenoxy)-3-methoxy-N-(4-methylpent-2-yn-4-yl)propionamide]
[1]
  control of fungal infection: at least 70%
[2]
  control of fungal infection: at least 70%
[3]
  control of fungal infection: at least 70%

## CC#CC(C)(C)NC(=O)C(COC)Oc1cc(Cl)cc(Cl)c1 (centres unmarked) [4(1), 2-(3,5-dichlorophenoxy)-3-methoxy-N-(4-methylpent-2-yn-4-yl)propionamide]
[1]
  control of fungal infection: at least 70%
[2]
  control of fungal infection: at least 70%
[3]
  control of fungal infection: at least 70%

## C#CC(C)(C)NC(=O)C(COC)Oc1cc(Cl)cc(Cl)c1 (centres unmarked) [4(6), 2-(3,5-dichlorophenoxy)-3-methoxy-N-(3-methylbut-1-yn-3-yl)-propionamide]
[1]
  control of fungal infection: at least 70%
[2]
  control of fungal infection: at least 70%

## COCC#CC(C)(C)NC(=O)C(COC)Oc1cc(Cl)cc(Cl)c1 (centres unmarked) [4(16), 2-(3,5-dichlorophenoxy)-N-(1-methoxy-4-methylpent-2-yn-4-yl)-3-methoxypropionamide]
[1]
  control of fungal infection: at least 70%
[2]
  control of fungal infection: at least 70%
[3]
  control of fungal infection: at least 70%
